This assay addresses LMF1-HA (Lasso Maintenance Factor 1, HA-tagged) (Toxoplasma gondii). Briefly: proximity labelling; Biotinylation by Antibody Recognition (BAR) in LMF1-HA parasites: fixed, permeabilised, primary antibody and HRP-conjugated secondary antibody, biotin phenol and hydrogen peroxide; streptavidin beads, mass spectrometry; parental strain as control.

No constants are given. Whether binding was seen depends on the method and setting. Binding seen in cells or lysates may run through a third protein. Here binding means that the protein was enriched with, or labelled near, the bait; the list need not be complete.

B1: microtubule-associated protein SPM2 (protein, UniProt S8GR18 1-357)
chain: MALPLDAWATAAHGSKAYVARSADVSRGACFSPAGVTRVSHQGIEPARPAGVSSRRLTQLRLAMSQQPEDRAHAPRGPTAYSCTALRDNVNEILRSATIPRDTDPVAAVLDRKRVDDYAGMRSDGINELRTPSHRWSAEVGKKRGLMTKNESVFVSDVLEHHGRPIDDSPEFQHPRVAAYLQQQCKPKCRSLQRHYGPDELHKAFYTKFEVVDKTTGRTEIMTARRPGSAAAIISLCNFDAYSTRSHKATSAQKQVSNIESTPLGLVPRKGAELPHKPSFTQTAASVCMKRSQLRCQDSWLTPSSDAPTIRHLGQSRRHVALPWLHRPTNRILQHLPQPRVQSRLVCQVDHAKKSPL
Turning to B1, the binding entry is on record as “binds”.

Source of the values: publication PMC11486366.
